In PMC11548754:
Results are given in words; binding and its absence hold for the method and conditions named. For some assays here: In cells and extracts the contact can be indirect. Some entries that bind do so weakly or less than the wild type.

Protein sequences, listed by entry. Tags and fused reporters are not part of them.
UniProt Q9SAD4: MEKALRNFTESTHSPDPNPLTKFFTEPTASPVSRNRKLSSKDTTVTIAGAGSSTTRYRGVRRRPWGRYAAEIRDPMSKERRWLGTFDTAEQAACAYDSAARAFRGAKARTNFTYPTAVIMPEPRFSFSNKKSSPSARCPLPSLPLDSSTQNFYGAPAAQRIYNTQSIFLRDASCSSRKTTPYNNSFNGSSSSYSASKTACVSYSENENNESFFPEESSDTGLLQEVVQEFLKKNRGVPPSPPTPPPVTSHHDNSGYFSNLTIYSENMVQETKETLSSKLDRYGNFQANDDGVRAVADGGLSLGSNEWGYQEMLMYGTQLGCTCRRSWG
UniProt Q6EVK6: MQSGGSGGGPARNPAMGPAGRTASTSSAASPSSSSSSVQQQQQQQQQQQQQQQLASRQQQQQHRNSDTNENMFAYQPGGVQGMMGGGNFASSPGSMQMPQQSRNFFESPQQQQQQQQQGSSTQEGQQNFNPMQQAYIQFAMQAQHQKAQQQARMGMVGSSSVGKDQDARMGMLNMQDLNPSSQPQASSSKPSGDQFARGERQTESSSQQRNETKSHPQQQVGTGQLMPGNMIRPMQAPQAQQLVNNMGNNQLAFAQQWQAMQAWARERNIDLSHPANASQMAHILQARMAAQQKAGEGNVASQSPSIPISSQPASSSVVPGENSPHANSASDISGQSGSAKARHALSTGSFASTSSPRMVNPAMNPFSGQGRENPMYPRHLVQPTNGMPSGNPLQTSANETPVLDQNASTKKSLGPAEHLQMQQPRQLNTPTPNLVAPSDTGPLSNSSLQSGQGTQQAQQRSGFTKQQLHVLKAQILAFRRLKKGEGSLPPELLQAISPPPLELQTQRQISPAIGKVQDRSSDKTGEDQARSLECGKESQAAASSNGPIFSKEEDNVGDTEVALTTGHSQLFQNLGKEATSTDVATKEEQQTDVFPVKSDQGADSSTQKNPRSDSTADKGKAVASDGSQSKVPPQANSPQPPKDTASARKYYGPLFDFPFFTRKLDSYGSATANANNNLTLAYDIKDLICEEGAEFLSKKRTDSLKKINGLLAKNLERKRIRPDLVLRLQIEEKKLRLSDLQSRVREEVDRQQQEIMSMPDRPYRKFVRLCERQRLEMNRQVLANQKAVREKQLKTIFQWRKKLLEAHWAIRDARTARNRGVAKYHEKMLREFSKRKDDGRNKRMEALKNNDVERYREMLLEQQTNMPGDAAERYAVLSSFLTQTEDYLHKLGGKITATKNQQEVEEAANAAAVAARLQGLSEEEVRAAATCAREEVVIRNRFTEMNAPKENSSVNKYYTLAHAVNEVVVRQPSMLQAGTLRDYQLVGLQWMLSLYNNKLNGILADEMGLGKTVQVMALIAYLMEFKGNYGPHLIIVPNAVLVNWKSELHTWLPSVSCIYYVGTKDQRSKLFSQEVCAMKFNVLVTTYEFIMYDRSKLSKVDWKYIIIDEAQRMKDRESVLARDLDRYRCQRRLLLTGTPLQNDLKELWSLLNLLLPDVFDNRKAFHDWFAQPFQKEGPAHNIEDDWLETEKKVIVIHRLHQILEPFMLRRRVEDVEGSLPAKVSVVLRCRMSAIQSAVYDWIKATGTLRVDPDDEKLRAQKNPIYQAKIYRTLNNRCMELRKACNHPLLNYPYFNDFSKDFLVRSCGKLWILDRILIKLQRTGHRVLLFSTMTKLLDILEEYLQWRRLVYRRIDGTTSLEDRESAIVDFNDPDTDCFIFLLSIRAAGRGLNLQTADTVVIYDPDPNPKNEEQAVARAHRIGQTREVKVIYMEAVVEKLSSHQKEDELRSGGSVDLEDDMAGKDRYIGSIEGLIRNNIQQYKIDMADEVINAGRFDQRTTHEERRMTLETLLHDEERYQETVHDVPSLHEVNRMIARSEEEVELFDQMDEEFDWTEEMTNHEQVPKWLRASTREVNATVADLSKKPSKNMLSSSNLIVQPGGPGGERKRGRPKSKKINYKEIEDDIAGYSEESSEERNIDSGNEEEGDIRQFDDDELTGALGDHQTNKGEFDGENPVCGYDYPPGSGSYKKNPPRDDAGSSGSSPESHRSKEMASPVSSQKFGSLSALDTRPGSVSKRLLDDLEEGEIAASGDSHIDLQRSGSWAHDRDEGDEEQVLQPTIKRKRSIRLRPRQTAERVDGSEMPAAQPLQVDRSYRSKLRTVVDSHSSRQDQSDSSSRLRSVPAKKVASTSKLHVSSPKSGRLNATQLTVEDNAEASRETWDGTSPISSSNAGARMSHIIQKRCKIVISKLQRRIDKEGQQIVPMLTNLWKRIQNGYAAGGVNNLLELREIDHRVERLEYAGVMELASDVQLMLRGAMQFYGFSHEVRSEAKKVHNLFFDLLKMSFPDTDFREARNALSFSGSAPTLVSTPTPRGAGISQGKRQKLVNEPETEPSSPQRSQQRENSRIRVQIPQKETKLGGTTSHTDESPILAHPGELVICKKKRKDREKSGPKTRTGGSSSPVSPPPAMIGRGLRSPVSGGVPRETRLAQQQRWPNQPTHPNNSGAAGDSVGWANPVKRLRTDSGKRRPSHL

What was measured:
[1] = target: DRN, full length, yeast two-hybrid fusion (Arabidopsis) (UniProt Q9SAD4); experiment: two-hybrid; pGBKT7 (BD) and pGADT7 (AD) fusions in yeast strain Y2H Gold; tested on SD/−Leu/−Trp/−His/−Ade in dilutions of 10^−1, 10^−2 and 10^−3
DRN-nYFP (Arabidopsis) = DRN-nYFP (Arabidopsis) (UniProt Q9SAD4); experiment: split reporter; BiFC with split YFP in inflorescence SAMs of transgenic Arabidopsis, fusions driven by the native promoters, lines made by crossing

Question: With “BRM, full length, yeast two-hybrid and three-hybrid fusion (from UniProt Q6EVK6 1-2193)” as the substance, how does the binding [1] read?
Answer: binds

Question: With BRM-cYFP (from UniProt Q6EVK6 1-2193) as the substance, how does the binding (DRN-nYFP (Arabidopsis)) read?
Answer: binds
